Columns and labels:
buccal mucosae = test: Taste and cooling effect of the compound when tasted; type: in vivo, human
expert flavourists = test: Grapefruit-flavoured sweets compared by expert flavourists under blind conditions; type: in vivo, human; details: 0.05% in grapefruit-flavoured sweets
Description: Grapefruit-flavoured sweets were prepared from boiled sugar, 1% citric acid, and 0.05% of a grapefruit flavouring of the following formula: Under blind conditions, expert flavourists then compared these sweets, without any additives, with sweets of the same composition to which certain compounds according to the invention had been added.

SMILES	taste (buccal mucosae)	taste / organoleptic profile (expert flavourists)
COCC(=O)O[C@@H]1C[C@H](C)CC[C@H]1C(C)C [(1R,2S,5R)-3-menthyl methoxyacetate, (1R,2S,5R)-3-methyl methoxyacetate]	head note fruity taste resembling that of menthyl acetate	does not modify the organoleptic profile of the base composition
COCCOCC(=O)O[C@@H]1C[C@H](C)CC[C@H]1C(C)C [(1R,2S,5R)-3-menthyl 3,6-dioxaheptanoate]	bitter taste	a bitterness which reinforced the natural bitterness of the grapefruit essence
CC(C)[C@@H]1CC[C@@H](C)C[C@H]1OC(=O)COCCOCCOCCO [(1R,2S,5R)-menthyl 11-hydroxy-3,6,9-trioxaundecanoate]	slightly bitter, mentholated taste	
